Assay results reported in the supplement of paper PMC10849652.
This is one part of the list.

Amino acid sequences for entries named in this document (tags omitted). A change or cut given only in a name is not applied to a line headed by its entry.
UniProt Q8NFI3: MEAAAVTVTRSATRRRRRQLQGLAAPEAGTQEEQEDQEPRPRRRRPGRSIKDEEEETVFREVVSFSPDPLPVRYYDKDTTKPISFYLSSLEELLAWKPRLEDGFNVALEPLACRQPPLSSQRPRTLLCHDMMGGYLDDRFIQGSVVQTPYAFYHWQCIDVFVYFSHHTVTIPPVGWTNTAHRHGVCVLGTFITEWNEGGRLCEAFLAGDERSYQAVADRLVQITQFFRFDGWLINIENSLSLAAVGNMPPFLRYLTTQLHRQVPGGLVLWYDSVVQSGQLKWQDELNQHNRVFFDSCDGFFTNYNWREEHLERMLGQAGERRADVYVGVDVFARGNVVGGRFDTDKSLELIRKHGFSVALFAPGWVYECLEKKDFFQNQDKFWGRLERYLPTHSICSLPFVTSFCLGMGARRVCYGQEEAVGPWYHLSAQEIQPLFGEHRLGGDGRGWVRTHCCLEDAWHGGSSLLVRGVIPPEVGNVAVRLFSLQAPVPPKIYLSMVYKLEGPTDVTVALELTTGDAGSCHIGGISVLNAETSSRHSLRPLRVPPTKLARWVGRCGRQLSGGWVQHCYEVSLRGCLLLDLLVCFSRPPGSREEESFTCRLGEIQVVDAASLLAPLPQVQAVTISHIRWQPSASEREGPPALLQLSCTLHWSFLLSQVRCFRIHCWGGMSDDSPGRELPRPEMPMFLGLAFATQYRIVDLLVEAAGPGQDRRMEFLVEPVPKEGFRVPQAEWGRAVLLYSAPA
UniProt P50402: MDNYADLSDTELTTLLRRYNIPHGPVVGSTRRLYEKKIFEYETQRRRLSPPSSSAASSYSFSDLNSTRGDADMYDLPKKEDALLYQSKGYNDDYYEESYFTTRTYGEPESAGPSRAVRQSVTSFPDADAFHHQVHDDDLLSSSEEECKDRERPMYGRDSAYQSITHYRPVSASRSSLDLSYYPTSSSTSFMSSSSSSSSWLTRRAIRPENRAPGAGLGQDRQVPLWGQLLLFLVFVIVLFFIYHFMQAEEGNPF
UniProt Q9UBQ5, whole entry, looked up: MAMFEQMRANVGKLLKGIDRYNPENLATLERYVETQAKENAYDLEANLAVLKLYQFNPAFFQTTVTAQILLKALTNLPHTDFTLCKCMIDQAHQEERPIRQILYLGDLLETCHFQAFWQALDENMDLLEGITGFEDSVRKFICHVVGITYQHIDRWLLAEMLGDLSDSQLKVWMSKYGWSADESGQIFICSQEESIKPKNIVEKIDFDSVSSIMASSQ
UniProt P63241: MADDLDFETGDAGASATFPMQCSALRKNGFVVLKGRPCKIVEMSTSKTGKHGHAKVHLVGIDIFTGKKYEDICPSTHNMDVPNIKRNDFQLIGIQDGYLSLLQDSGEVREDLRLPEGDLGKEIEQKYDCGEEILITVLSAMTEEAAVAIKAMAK
UniProt Q9BY44: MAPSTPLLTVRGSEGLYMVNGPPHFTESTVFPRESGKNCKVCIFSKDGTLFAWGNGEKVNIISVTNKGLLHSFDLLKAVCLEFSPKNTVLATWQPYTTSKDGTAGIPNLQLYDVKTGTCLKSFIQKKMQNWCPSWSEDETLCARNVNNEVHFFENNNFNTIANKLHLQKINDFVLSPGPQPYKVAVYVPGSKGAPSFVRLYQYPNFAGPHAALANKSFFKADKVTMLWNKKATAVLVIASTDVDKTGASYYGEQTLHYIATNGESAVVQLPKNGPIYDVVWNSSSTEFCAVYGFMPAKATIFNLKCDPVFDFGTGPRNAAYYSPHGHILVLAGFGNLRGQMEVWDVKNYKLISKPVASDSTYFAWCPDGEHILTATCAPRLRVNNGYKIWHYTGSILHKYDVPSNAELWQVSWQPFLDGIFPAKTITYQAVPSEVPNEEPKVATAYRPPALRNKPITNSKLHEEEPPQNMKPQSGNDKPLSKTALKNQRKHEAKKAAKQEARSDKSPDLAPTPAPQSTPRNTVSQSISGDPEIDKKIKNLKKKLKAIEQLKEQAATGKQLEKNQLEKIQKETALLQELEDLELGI
UniProt P57772: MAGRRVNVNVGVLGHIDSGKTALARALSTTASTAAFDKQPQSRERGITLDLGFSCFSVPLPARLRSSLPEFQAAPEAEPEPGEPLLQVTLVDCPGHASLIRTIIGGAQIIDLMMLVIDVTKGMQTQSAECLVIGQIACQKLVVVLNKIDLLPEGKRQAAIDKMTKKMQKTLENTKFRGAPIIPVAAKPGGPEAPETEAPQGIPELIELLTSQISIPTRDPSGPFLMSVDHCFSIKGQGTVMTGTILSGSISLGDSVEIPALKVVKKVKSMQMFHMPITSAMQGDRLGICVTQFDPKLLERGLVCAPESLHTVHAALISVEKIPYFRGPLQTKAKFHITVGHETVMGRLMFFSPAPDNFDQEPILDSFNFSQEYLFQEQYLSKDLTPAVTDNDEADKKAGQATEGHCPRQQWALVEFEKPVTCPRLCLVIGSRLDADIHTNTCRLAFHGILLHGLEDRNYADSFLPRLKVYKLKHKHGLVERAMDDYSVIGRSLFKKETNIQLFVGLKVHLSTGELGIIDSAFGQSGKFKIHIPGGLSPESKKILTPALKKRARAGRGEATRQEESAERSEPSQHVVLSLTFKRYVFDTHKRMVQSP
UniProt P06733, whole entry, looked up: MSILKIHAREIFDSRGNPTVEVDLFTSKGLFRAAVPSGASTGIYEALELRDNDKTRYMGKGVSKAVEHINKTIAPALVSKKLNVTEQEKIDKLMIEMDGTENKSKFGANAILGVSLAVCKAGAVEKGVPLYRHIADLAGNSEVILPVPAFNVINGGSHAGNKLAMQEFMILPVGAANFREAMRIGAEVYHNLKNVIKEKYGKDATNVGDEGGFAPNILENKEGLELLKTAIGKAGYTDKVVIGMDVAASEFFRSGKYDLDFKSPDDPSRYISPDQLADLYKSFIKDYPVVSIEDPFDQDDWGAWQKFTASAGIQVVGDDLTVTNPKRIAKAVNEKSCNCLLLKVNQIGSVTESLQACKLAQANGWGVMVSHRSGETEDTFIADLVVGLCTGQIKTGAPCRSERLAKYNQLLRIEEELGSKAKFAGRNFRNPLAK
UniProt Q9HC35: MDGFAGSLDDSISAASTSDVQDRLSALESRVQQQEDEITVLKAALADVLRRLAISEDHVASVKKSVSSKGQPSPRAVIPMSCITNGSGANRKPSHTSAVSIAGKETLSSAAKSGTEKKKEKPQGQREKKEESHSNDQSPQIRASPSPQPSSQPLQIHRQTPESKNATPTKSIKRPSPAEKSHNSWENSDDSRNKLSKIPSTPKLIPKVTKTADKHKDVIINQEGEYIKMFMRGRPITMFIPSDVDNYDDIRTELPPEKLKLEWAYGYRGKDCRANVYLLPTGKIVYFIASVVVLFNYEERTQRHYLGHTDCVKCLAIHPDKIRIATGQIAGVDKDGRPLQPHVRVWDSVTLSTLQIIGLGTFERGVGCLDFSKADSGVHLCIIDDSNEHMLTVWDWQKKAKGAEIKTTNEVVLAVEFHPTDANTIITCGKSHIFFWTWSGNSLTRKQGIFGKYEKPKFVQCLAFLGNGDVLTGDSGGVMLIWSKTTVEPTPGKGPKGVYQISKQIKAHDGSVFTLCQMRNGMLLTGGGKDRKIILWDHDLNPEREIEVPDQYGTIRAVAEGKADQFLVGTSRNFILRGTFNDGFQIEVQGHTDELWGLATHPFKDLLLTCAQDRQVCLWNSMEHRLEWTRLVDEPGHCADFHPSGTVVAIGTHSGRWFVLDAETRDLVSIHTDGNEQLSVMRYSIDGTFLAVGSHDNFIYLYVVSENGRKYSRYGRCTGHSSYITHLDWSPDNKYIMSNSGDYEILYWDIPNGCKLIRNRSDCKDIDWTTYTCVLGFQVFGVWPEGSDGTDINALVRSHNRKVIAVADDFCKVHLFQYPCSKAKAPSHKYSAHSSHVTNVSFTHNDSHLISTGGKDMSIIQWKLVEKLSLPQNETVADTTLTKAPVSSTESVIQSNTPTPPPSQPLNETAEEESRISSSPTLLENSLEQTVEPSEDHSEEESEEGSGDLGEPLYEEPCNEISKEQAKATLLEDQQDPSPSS
UniProt Q15369, whole entry, looked up: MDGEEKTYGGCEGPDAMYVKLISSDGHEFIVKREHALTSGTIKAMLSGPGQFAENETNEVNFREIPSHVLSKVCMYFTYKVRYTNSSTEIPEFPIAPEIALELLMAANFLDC
UniProt P55199: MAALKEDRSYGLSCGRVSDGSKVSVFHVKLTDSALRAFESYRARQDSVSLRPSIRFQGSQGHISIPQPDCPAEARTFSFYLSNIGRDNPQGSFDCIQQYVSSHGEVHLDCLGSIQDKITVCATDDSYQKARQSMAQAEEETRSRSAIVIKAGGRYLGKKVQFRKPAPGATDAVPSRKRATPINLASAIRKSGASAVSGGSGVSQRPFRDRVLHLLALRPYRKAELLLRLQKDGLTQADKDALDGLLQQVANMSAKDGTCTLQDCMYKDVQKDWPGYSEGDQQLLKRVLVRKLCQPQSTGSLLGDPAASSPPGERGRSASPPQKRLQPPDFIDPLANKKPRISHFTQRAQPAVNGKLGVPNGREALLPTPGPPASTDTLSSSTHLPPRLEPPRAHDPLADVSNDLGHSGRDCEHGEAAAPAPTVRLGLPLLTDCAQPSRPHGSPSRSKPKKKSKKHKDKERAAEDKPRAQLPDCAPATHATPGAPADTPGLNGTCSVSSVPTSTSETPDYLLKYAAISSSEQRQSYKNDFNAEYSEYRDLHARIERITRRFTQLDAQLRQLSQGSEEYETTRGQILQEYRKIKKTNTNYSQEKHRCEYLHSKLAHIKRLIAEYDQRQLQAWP
UniProt P13929, whole entry, looked up: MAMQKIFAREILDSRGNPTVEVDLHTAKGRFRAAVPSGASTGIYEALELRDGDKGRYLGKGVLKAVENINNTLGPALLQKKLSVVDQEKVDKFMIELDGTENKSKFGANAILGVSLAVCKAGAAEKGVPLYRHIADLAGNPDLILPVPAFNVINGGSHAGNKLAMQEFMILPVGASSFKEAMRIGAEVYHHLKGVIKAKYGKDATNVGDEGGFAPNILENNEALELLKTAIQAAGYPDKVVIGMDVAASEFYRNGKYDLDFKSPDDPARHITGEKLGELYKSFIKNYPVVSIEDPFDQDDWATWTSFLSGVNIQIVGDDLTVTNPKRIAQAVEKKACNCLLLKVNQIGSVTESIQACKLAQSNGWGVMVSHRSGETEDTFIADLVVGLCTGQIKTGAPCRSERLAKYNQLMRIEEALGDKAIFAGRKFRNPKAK
UniProt Q9NYP7: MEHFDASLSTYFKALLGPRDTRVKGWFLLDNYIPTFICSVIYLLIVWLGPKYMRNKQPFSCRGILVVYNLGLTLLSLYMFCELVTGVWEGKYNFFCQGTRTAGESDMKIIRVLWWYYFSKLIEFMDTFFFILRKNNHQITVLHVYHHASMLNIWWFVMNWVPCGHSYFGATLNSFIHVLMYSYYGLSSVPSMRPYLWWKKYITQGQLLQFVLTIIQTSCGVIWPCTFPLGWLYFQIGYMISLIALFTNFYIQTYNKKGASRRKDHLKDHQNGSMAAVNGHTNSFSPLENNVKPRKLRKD
UniProt O15371, whole entry, looked up: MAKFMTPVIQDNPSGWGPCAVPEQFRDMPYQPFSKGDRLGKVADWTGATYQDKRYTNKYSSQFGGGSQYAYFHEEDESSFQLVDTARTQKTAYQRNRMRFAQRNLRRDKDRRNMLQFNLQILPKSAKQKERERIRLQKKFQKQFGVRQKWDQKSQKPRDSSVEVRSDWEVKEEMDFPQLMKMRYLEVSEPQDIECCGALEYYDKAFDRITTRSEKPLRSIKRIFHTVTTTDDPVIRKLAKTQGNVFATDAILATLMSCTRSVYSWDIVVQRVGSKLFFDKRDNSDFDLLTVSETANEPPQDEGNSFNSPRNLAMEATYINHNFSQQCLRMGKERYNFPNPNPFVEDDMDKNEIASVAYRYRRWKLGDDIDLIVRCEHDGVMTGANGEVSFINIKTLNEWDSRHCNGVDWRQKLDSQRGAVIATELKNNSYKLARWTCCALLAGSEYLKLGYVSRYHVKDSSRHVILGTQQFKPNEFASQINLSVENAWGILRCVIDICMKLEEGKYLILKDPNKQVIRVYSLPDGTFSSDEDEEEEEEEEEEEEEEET
UniProt Q9NQZ7: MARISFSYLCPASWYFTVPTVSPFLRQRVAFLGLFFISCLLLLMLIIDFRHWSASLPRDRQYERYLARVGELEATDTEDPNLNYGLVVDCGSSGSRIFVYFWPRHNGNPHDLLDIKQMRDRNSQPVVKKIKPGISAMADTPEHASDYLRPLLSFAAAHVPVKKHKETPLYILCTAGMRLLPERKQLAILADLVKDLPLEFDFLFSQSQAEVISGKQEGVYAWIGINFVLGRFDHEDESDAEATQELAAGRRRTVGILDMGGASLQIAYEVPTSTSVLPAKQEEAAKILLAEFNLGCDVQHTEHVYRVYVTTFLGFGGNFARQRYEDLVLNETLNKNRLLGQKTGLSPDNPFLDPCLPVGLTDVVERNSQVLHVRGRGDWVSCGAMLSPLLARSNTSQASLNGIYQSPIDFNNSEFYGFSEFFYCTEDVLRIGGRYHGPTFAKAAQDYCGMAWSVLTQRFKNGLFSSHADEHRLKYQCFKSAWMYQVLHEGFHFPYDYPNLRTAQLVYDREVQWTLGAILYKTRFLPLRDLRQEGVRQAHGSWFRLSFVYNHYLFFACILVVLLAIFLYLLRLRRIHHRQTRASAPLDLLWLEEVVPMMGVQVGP

Key:
Test in all cases: log2 fold change, soluble protein after heating vs DMSO (PISA); higher = thermal stabilisation; K562 cells, 10 uM, 30 min; active = over 0.2 and 3.5 SD of the protein, either way, in both replicates (recomputed)
[1] = compound: CC1=C(C=C(C=C1)NC(=O)C2=CC(=CC=C2)C(C)(C)C#N)NC3=CC4=C(C=C3)N=CN(C4=O)C
In short: (§1)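 K562 cells at 2×10^6 cells/mL were given 10 μM compound for 30 min. Aliquots then went through 3 min of heating across 48°C-58°C, were pooled, and were extracted in PBS with 0.5% NP-40 at 4°C, and the supernatant after 21,000xg for 90 min was quantified by TMTpro 16plex LC-MS/MS with channel sums equalised. Thermal stability relative to control samples, from duplicates, is given as log2 fold change.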

[2] = compound: CC1=C(C=C(C=C1)NC(=O)C2=CC(=CC=C2)N(C)C)NC(=O)C3=CC=C(C=C3)O
In short: as §1

[3] = compound: CC1=CC=C(C=C1)SC2=C3C=C(SC3=CN=C2)C(=O)N
In short: as §1

[4] = compound: CC1=NC(=CC=C1)C2=C(N=C(N2)C(C)(C)C)C3=CC4=NC=CN=C4C=C3
In short: as §1

Nexturastat A = compound: CCCCN(Cc1ccc(C(=O)NO)cc1)C(=O)Nc1ccccc1 [Nexturastat A]
In short: as §1

vemurafenib = compound: CCCS(=O)(=O)Nc1ccc(F)c(C(=O)c2c[nH]c3ncc(-c4ccc(Cl)cc4)cc23)c1F [vemurafenib]
In short: as §1

[5] = compound: CCCS(=O)(=O)Nc1ccc(F)c(C(=O)c2c[nH]c3ncc(Cl)cc23)c1F
In short: as §1

[6] = compound: CCCc1cc(C)[nH]c(=O)c1CNC(=O)c1cc(-c2ccnc(N3CCN(C)CC3)c2)cc2c1cnn2C(C)C
In short: as §1

givinostat = compound: CCN(CC)Cc1ccc2cc(COC(=O)Nc3ccc(C(=O)NO)cc3)ccc2c1 [givinostat]
In short: as §1

barasertib = compound: CCN(CCCOc1ccc2c(Nc3cc(CC(=O)Nc4cccc(F)c4)[nH]n3)ncnc2c1)CCOP(=O)(O)O [barasertib]
In short: as §1

Row | Target | log2 fold change [1] | log2 fold change [2] | log2 fold change [3] | log2 fold change [4] | log2 fold change (Nexturastat A) | log2 fold change (vemurafenib) | log2 fold change [5] | log2 fold change [6] | log2 fold change (givinostat) | log2 fold change (barasertib)
1 | ENGASE (UniProt Q8NFI3) | inactive: -0.034 | inactive: 0.073 | inactive: 0.046 | inactive: -0.052 | inactive: 0.025 | inactive: -0.105 | inactive: -0.025 | inactive: -0.077 | inactive: 0.021 | inactive: 0.048
2 | EED, A0A5F9ZI63 | inactive: 0.005 | inactive: -0.067 | inactive: -0.012 | inactive: -0.019 | inactive: 0.013 | inactive: -0.02 | inactive: 0.025 | active: -0.204 | inactive: 0.082 | inactive: -0.038
3 | EPB41 (UniProt P11171) | inactive: 0.019 | inactive: -0.026 | inactive: -0.007 | inactive: 0.003 | inactive: -0.033 | inactive: 0.01 | inactive: 0.003 | inactive: 0.043 | inactive: -0.027 | inactive: 0.01
4 | EMD (UniProt P50402) | inactive: -0.056 | inactive: 0.011 | inactive: -0.076 | inactive: -0.04 | inactive: 0.059 | inactive: -0.015 | inactive: 0.021 | inactive: -0.092 | inactive: 0.002 | inactive: 0.002
5 | EIF3K (UniProt Q9UBQ5) | inactive: 0.03 | inactive: -0.04 | inactive: 0.024 | inactive: 0.024 | inactive: 0.01 | inactive: 0.016 | inactive: 0.053 | inactive: -0.01 | inactive: -0.011 | inactive: 0.033
6 | EIF5A isoform 2 (UniProt P63241) | inactive: 0.063 | inactive: -0.105 | inactive: 0.054 | inactive: 0.062 | inactive: -0.082 | inactive: 0.06 | inactive: 0.098 | inactive: 0.046 | inactive: 0.03 | inactive: 0.036
7 | EIF6 (UniProt P56537) | inactive: -0.044 | inactive: 0.04 | inactive: -0.031 | inactive: 0.009 | inactive: 0.039 | inactive: -0.044 | inactive: -0.081 | inactive: -0.005 | inactive: -0.005 | inactive: 0.009
8 | EMC10 (UniProt Q5UCC4) | inactive: -0.03 | inactive: -0.047 | inactive: -0.006 | inactive: 0.002 | inactive: -0.122 | inactive: 0.043 | inactive: 0.018 | inactive: 0.01 | inactive: -0.01 | inactive: 0.027
9 | EIF2A (UniProt Q9BY44) | inactive: 0.058 | inactive: -0.022 | inactive: -0.015 | inactive: 0.003 | inactive: 0.09 | inactive: -0.027 | inactive: 0.011 | inactive: 0.029 | inactive: 0.023 | inactive: -0.014
10 | EEFSEC (UniProt P57772) | inactive: 0.063 | inactive: 0.033 | inactive: 0.027 | inactive: -0.02 | inactive: 0.122 | inactive: -0.039 | inactive: 0.058 | inactive: 0.046 | inactive: -0.081 | inactive: -0.064
11 | EHHADH (UniProt Q08426) | inactive: -0.044 | inactive: -0.028 | inactive: -0.007 | inactive: -0.008 | inactive: 0.005 | inactive: -0.019 | inactive: 0.02 | inactive: -0.008 | inactive: -0.002 | inactive: 0.028
12 | ENO1 (UniProt P06733) | inactive: -0.009 | inactive: -0.004 | inactive: 0.01 | inactive: 0.022 | inactive: -0.084 | inactive: -0.013 | inactive: -0.029 | inactive: -0.028 | inactive: -0.044 | inactive: 0.019
13 | EFL1 (UniProt Q7Z2Z2) | inactive: -0.025 | inactive: 0.004 | inactive: 0.016 | inactive: 0.012 | inactive: -0.11 | inactive: 0.04 | inactive: 0.036 | inactive: 0.008 | inactive: 0.004 | inactive: 0.05
14 | EIF5 (UniProt P55010) | inactive: 0.027 | inactive: -0.035 | inactive: 0.012 | inactive: 0.025 | inactive: -0.033 | inactive: 0.012 | inactive: 0.039 | inactive: -0.039 | inactive: -0.06 | inactive: 0.025
15 | EML4 (UniProt Q9HC35) | inactive: -0.019 | inactive: -0.016 | inactive: 0.022 | inactive: -0.076 | inactive: 0.215 | inactive: -0.034 | inactive: 0.013 | inactive: 0.074 | inactive: 0.039 | inactive: 0.023
16 | EIF3G (UniProt K7ER90) | inactive: 0.007 |  |  | inactive: -0.061 | inactive: 0.05 | inactive: 0.043 |  | inactive: -0.152 | inactive: 0 | inactive: -0.022

Some of the entries so far, as tab-separated lines:
Row	Target	log2 fold change [1]	log2 fold change [2]	log2 fold change [3]	log2 fold change [4]	log2 fold change (Nexturastat A)	log2 fold change (vemurafenib)	log2 fold change [5]	log2 fold change [6]	log2 fold change (givinostat)	log2 fold change (barasertib)
12	ENO1 (UniProt P06733)	inactive: -0.009	inactive: -0.004	inactive: 0.01	inactive: 0.022	inactive: -0.084	inactive: -0.013	inactive: -0.029	inactive: -0.028	inactive: -0.044	inactive: 0.019
13	EFL1 (UniProt Q7Z2Z2)	inactive: -0.025	inactive: 0.004	inactive: 0.016	inactive: 0.012	inactive: -0.11	inactive: 0.04	inactive: 0.036	inactive: 0.008	inactive: 0.004	inactive: 0.05

Continued.

Row | Target | log2 fold change [1] | log2 fold change [2] | log2 fold change [3] | log2 fold change [4] | log2 fold change (Nexturastat A) | log2 fold change (vemurafenib) | log2 fold change [5] | log2 fold change [6] | log2 fold change (givinostat) | log2 fold change (barasertib)
17 | EIF1B (UniProt O60739) | inactive: 0.075 | inactive: -0.04 |  | inactive: 0.048 | inactive: 0.134 |  |  | inactive: -0.008 | inactive: -0.139 | inactive: 0.032
18 | EIF4G3 isoform 3 (UniProt O43432) | inactive: -0.024 | inactive: 0.01 | inactive: 0 | inactive: -0.015 |  | inactive: 0.047 | inactive: 0.002 | inactive: 0.067 | inactive: 0.08 | inactive: 0.059
19 | ELOVL6 (UniProt Q9H5J4) | inactive: 0.191 | inactive: 0.009 | inactive: -0.146 | inactive: 0.069 |  | inactive: 0.083 | inactive: -0.153 | inactive: -0.074 | inactive: 0.145 | inactive: 0.067
20 | ELAVL1 isoform 2 (UniProt Q15717) | inactive: 0.099 | inactive: 0.01 | inactive: -0.117 | inactive: 0.041 | inactive: 0.267 | inactive: 0.083 | inactive: 0.029 | inactive: 0.081 | inactive: 0.111 | inactive: -0.009
21 | ELOC (UniProt Q15369) | inactive: 0.016 | inactive: -0.034 | inactive: 0.008 | inactive: 0.001 | inactive: -0.027 | inactive: 0.017 | inactive: 0.031 | inactive: 0 | inactive: -0.035 | inactive: 0.026
22 | EPB41, A0A2R8Y6D0 | inactive: -0.077 | inactive: 0.119 | inactive: 0.041 |  |  | inactive: 0.027 | inactive: -0.017 | inactive: -0.014 | inactive: 0.03 | inactive: 0.004
23 | EMC1 (UniProt Q8N766) | inactive: 0.007 | inactive: 0.022 | inactive: 0.017 | inactive: 0.026 | inactive: -0.015 | inactive: 0.014 | inactive: 0.009 | inactive: -0.005 | inactive: 0.005 | inactive: -0.002
24 | ELL (UniProt P55199) | inactive: -0.064 | inactive: -0.127 |  |  | inactive: -0.042 |  |  |  | inactive: 0.077 | inactive: -0.036
25 | ENO3 (UniProt P13929) | inactive: 0.089 | inactive: 0.015 | inactive: 0.042 | inactive: 0.039 | inactive: 0.017 | inactive: 0.044 | inactive: 0.084 | inactive: -0.004 | inactive: -0.017 | inactive: -0.033
26 | ENOSF1 (UniProt Q7L5Y1) | inactive: -0.031 | inactive: -0.002 | inactive: 0.02 | inactive: -0.028 | inactive: 0.06 | inactive: -0.062 | inactive: -0.032 | inactive: -0.06 | inactive: 0.051 | inactive: 0.025
27 | EID1 (UniProt Q9Y6B2) | inactive: -0.047 |  | inactive: 0.019 |  | inactive: 0.18 |  | inactive: -0.107 | inactive: 0.135 | inactive: -0.134 | 
28 | ELOVL5 isoform 2 (UniProt Q9NYP7) | inactive: 0.079 | inactive: 0.02 | inactive: 0.002 |  | inactive: -0.05 | inactive: 0.065 | inactive: 0.03 | inactive: -0.241 | inactive: -0.008 | inactive: 0.035
29 | EIF3D (UniProt O15371) | inactive: 0.02 | inactive: -0.024 | inactive: 0.072 | inactive: 0.006 | inactive: 0.323 | inactive: 0.007 | inactive: 0.085 | inactive: 0.118 | inactive: 0.148 | inactive: 0.082
30 | ENO2 (UniProt U3KQQ1) | inactive: -0.3 |  | inactive: -0.294 | inactive: -0.14 |  |  | inactive: -0.339 |  |  | inactive: 0.146
31 | ENTPD7 (UniProt Q9NQZ7) | inactive: -0.033 |  | inactive: 0.012 | inactive: 0.142 | inactive: 0.047 |  | inactive: -0.1 | inactive: -0.068 | inactive: 0 | inactive: -0.009
32 | EFR3A (UniProt Q14156) | inactive: 0.152 |  |  |  | inactive: 0.472 | inactive: -0.131 |  | inactive: -0.014 |  | 
